Values quoted from earlier work as cited in patent publication US20200047384A1, “DEVICE FOR THE CONTINUOUS PRODUCTION OF SOLID DOSAGE FORMS, AND USE OF SAID DEVICE FOR MEDICINAL DRUGS AND/OR USE THEREOF FOR FOOD SUPPLEMENTS” (Université de Liège, priority 2016, published 2020).

Conditions: in water; general statement, no test described

In the case of CCC(C)n1ncn(-c2ccc(N3CCN(c4ccc(OCC5COC(Cn6cncn6)(c6ccc(Cl)cc6Cl)O5)cc4)CC3)cc2)c1=O (stereo not drawn) [Itraconazole, cis-4{4-(4-(4((2-(2,4-dichlorophenyl)-2-(1H-1,2,4-triazol-1-ylmethyl)-1,3-dioxolan-4yl)nnethoxy)phenyl)-1-piperazinyl)phenyl)-2,4-dihydro-2(1-nnethylpropyl)-3H-1,2,4-triazol-3-one], the water solubility is listed as “below 1 microgram per milliliter”.
